## Results of single-concentration screens

The values are deposited in ChEMBL (CHEMBL3988442, “University of Dundee, Small-Polar-MMV Screening Library” (2021)).

Each number is a percent effect as filed. The controls that fix the scale are not given in the record; negative values are as filed. The compounds are a random part of those screened. Two or more numbers in one place are separate tests of the same structure; such repeats can differ widely.

Mtb glucose medium: 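Phenotypic screen: M. tuberculosis growth, glucose 7H9 medium, 3 days; the read-out is not stated. Compounds at 50 µM. The record gives no direction; compounds that gave an IC50 in retests scored well above the rest, so higher reads as more growth inhibition. About 69,000 compounds were tested under these conditions; 1.1% (about 760) showed 50% or more at least once.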
Mtb cholesterol medium: 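Growth of Mycobacterium tuberculosis over 4 days (cholesterol / DPPC medium with tyloxapol); the read-out is not stated. Concentration: 50 µM. The record gives no direction; compounds that gave an IC50 in retests scored well above the rest, so higher reads as more growth inhibition. Of about 69,000 compounds tested this way, about 370 (0.54%) reached 50% or more in at least one test.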

SMILES	Mtb glucose medium	Mtb cholesterol medium
CS(=O)(=O)CCn1ccc(NC(=O)c2c(F)cccc2F)n1	-7.172% and 4.127%	17.51%
O=C(O)C(F)(F)F.O=C(O)C(F)(F)F.[H][C@@]12CCC(=O)N(c3cnn(C)c3)[C@]1([H])CCN2Cc1ccncc1	0.8542%	-15.23%
C1CC(NCc2nc(C3CC3)no2)CN(Cc2noc(C3CC3)n2)C1 (centres unmarked)	-32.47%	-75.5%
Cc1cc(C)n(C2CCCN(C(=O)c3csc(C4CC4)n3)C2)n1 (centres unmarked)	12.16%	-11.53%
O=C(O)C(F)(F)F.[H][C@@]12CN(CCOC)C[C@]1([H])[C@@H](OC)CCN2C(=O)Cc1ccsc1	9.44%	6.193%
CS(=O)(=O)c1ccc2c(c1)N(C(=O)c1cccc(F)c1)CCC2	-9.235%	-4.612%
Cn1ccc2cc(CC3COCCN(C(=O)c4cccnc4)C3)ccc21 (centres unmarked)	-43.34%	-41.66% and -7.973%
CS(=O)(=O)c1ccc(NC(=O)N2CCc3sccc3C2)cn1	3.392%	-24.31% and -7.071%
CC(O)(CN1CCN(CCO)CC1)c1cccc(C(F)(F)F)c1 (centres unmarked)	8.504%	15.15%
COC(=O)c1cccc(C(=O)NCc2ccc(C)o2)n1	9.302%	3.183%
Cn1ccc(C(=O)NCc2ccccc2Cn2ccnc2)cc1=O	-7.173%	-6.998%
O=C(c1cc(Cl)ccc1F)N1CCCC1Cn1cccn1 (centres unmarked)	-23.41%	9.062%
Cc1ccc(CNC(=O)CN2C=Nc3ccccc3S2(=O)=O)s1	24.91%	-0.05104%
CC(=O)Nc1ccc(OCc2noc(C(=O)N3CCCCC3)n2)cc1	-3.55%	-12.02%
Cl.Clc1ccccc1CN1CCc2nc(C3CCCNC3)ncc2C1 (centres unmarked)	52.52%	14.82%
NC(=O)[C@H]1CCCN(c2nccc(-c3c[nH]nc3-c3cccnc3)n2)C1	2.261%	-3.778%
N#Cc1cc2c(nc1SCc1cc(O)nc(O)n1)CCCC2	14.12%	-6.725%
O=C(NCc1ccccc1CN1CCCC1)Nc1cccnc1	-7.276%	-4.088% and -5.873%
Cc1ccc(-c2nc(CN3CCOC(Cn4cccn4)C3)cs2)o1 (centres unmarked)	-1.922%	3.125%
Cc1cc(N2CCOC(c3ccccn3)C2)nc(N)n1 (centres unmarked)	-11.23%	3.351% and -13.37%
[H][C@@]12CN(Cc3csc(C)n3)C[C@]1([H])CN(C(=O)c1ccncc1)C2	-8.331%	-12.92%
COCC(=O)N1CCN(Cc2csc(-c3ncccn3)n2)CC1	-11.28%	-8.147% and -4.427%
CSCC[C@H](NC(=O)CCn1cc(C(C)=O)c2ccccc21)C(=O)O	23.34%	3.809%
O=C(c1ccno1)N1CCC2(CC(=O)N(c3ccc4c(c3)OCO4)C2)C1 (centres unmarked)	3.678% and -2.631%	-0.1364%
Cc1nc(N2CCCC2)nc(C)c1NS(=O)(=O)c1ccccc1F	6.907% and 26.76%	7.617%
CCN(C)S(=O)(=O)N1CCCC1CC(=O)c1cccs1 (centres unmarked)	-31.91%	-15.19% and 2.015%
Cc1nc(CN2CCc3cnc(C(C)C)nc3C2)oc1C	-25.2%	-21.44%
Cc1cc(CN(C)c2nc(-c3ccccn3)nc3c2CCNCC3)n[nH]1	22.46% and 15.67%	4.957%
O=C(CCSc1ccccc1F)NS(=O)(=O)c1ccc2c(c1)OCCO2	11.67%	0.9446%
N#CCC(=O)NCc1nnc2n1CCN(Cc1ccco1)C2	8.067% and 21.08%	-7.623%
CN(C)CC(=O)N1CCc2ncnc(-c3cncnc3)c2CC1.O=C(O)C(F)(F)F	-18.19% and -7.97%	-34.14%
[H][C@@]12CCN(S(=O)(=O)C3CC3)[C@]1([H])CCC(=O)N2CC1CC1	-53.65%	-20.94%
COc1ncccc1NC(=O)N(CC(C)C)C1CC1	4.045%	7.185%
CC(Cn1cccn1)NC(=O)NCc1ccccn1 (centres unmarked)	-6.788%	-29.97%
Cc1noc(CCCC(=O)NC(C)c2nnc3n2CCC3)n1 (centres unmarked)	3.673% and -2.034%	6.405%
CN(C)C(=O)N1CC[C@@H](O)[C@@H]1Cc1ccccc1	-0.171%	-6.905% and -2.573%
CC(C)CCn1c(=O)n(CCn2cccc2)c2cc(C(=O)O)cnc21	-2.383% and 24%	5.702%
CC(C)NC(=O)NC[C@H]1OC[C@@H](NCc2ccncc2)[C@@H]1O	-1.717% and -41.1%	-14.39%
CNC(=O)Cn1cc(Nc2cccc(F)c2C#N)cn1	13.9%	-4.273%
Cc1nccn1-c1ncccc1CNC(=O)c1ccc(O)nc1	10.96%	-0.7659% and -6.382%
CC(C)c1noc(CCCC(=O)NCCOc2ccccc2)n1	22.85%	13.95% and -9.835%
Cc1csc(N2CCCN(C(=O)c3ccsc3)CC2)n1	2.064% and 10.82%	-8.434%

Repeated from the top, 3 entries:

* CS(=O)(=O)CCn1ccc(NC(=O)c2c(F)cccc2F)n1 : Mtb glucose medium: -7.172% and 4.127%; Mtb cholesterol medium: 17.51%
* O=C(O)C(F)(F)F.O=C(O)C(F)(F)F.[H][C@@]12CCC(=O)N(c3cnn(C)c3)[C@]1([H])CCN2Cc1ccncc1 : Mtb glucose medium: 0.8542%; Mtb cholesterol medium: -15.23%
* C1CC(NCc2nc(C3CC3)no2)CN(Cc2noc(C3CC3)n2)C1 (centres unmarked) : Mtb glucose medium: -32.47%; Mtb cholesterol medium: -75.5%